Assay [1] has as its target murine LTBP1-proTGFβ1 complex (mouse) (UniProt Q8CG19). Nature of the assay: BLI screen of human and murine LLCs.
Assay [2] has as its target murine LTBP3-proTGFβ1 complex (mouse) (UniProt Q61810). Nature of the assay: BLI screen of human and murine LLCs.
Assay [3] deals with hLRRC33-proTGFβ1 complex on cells (human) (UniProt Q86YC3). Nature of the assay: Incucyte internalization assay on Expi293 cells expressing LRRC33-proTGFβ1.
Assay [4] has as its target rat LTBP1-proTGFβ1 complex (rat) (UniProt Q00918+P17246). Nature of the assay: MSD-SET.
In assay [5] the target is rat LRRC33-proTGFβ1 complex (rat) (UniProt Q5BK65+P17246). Put plainly: MSD-SET.
The target of assay [6] is human proTGFβ1 C4S (human) (UniProt P01137). Nature of the assay: HDX-MS.

Chains of the proteins cited; added tags and fusions are not shown. Lines headed by an entry give the natural chain unless they say otherwise; changes in a name come on top.
UniProt Q8CG19: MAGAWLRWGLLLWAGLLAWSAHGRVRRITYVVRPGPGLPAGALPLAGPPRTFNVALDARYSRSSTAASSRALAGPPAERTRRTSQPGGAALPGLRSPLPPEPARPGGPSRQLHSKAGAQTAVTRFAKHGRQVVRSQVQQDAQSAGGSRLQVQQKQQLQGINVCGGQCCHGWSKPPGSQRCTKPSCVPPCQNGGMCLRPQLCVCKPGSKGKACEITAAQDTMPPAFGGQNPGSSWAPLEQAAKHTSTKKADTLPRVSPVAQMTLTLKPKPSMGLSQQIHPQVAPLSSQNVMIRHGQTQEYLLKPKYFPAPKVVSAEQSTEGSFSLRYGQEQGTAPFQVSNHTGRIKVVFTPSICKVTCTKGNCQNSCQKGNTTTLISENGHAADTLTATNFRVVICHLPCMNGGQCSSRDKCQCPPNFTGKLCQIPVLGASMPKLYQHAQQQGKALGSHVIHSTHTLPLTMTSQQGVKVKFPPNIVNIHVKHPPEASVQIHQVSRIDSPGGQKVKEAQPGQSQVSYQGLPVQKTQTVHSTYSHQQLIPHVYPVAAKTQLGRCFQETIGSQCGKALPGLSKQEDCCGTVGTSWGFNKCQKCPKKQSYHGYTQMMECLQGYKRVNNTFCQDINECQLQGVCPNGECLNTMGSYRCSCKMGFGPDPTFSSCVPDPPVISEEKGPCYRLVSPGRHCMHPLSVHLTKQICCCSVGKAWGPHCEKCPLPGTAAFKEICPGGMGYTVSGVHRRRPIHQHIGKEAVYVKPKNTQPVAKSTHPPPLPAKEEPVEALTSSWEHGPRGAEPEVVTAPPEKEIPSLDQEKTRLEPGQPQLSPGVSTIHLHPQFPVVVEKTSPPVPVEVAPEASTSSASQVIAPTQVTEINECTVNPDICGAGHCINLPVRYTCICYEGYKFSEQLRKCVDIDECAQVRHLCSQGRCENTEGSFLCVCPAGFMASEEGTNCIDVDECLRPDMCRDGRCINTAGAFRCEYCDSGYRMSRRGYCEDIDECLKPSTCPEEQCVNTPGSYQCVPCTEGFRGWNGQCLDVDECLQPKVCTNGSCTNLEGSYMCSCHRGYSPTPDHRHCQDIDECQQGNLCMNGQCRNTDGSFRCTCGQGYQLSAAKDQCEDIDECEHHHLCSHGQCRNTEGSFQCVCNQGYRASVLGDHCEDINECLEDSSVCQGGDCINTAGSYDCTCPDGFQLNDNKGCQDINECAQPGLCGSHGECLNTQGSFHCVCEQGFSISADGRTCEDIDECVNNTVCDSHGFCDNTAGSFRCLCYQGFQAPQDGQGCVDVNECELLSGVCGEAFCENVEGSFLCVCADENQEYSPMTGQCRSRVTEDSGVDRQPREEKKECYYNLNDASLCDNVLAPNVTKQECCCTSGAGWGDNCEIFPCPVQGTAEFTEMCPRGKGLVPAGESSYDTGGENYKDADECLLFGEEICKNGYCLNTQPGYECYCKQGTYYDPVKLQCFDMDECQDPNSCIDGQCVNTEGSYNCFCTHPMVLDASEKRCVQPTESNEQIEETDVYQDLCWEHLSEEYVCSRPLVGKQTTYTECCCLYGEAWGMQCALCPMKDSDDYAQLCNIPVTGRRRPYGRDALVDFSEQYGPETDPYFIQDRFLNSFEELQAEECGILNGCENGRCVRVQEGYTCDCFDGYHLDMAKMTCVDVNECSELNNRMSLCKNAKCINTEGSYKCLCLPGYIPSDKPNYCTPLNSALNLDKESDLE
UniProt Q61810: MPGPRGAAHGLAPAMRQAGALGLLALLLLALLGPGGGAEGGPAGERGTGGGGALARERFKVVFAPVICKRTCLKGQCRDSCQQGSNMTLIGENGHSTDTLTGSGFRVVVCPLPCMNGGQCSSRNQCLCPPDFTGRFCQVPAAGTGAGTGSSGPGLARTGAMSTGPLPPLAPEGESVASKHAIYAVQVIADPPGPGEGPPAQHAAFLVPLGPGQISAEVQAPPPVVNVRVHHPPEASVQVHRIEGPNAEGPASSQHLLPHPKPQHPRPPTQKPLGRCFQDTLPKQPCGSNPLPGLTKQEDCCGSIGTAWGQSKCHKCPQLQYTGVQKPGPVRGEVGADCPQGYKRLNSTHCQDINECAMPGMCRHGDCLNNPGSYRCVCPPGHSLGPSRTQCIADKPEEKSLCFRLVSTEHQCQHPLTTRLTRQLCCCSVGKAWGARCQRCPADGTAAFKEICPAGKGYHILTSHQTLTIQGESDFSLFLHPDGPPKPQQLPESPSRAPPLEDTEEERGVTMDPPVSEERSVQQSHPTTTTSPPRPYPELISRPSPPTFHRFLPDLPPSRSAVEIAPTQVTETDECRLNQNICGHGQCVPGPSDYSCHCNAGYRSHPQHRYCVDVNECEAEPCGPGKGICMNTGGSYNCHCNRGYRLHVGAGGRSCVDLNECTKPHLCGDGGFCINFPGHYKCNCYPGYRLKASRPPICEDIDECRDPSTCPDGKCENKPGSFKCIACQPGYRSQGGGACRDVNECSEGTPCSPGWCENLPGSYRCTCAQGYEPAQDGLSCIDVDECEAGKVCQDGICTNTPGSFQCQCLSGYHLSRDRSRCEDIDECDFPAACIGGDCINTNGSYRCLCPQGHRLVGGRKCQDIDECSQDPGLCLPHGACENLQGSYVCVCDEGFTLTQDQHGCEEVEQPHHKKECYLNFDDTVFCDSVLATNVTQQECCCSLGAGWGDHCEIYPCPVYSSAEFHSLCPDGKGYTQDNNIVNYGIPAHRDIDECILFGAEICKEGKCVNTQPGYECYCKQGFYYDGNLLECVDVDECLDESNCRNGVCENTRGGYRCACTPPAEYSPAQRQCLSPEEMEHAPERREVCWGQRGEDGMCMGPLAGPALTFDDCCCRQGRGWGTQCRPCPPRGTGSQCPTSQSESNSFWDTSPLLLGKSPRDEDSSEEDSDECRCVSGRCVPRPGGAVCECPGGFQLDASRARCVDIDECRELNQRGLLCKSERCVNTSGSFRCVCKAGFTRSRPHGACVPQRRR
UniProt Q86YC3: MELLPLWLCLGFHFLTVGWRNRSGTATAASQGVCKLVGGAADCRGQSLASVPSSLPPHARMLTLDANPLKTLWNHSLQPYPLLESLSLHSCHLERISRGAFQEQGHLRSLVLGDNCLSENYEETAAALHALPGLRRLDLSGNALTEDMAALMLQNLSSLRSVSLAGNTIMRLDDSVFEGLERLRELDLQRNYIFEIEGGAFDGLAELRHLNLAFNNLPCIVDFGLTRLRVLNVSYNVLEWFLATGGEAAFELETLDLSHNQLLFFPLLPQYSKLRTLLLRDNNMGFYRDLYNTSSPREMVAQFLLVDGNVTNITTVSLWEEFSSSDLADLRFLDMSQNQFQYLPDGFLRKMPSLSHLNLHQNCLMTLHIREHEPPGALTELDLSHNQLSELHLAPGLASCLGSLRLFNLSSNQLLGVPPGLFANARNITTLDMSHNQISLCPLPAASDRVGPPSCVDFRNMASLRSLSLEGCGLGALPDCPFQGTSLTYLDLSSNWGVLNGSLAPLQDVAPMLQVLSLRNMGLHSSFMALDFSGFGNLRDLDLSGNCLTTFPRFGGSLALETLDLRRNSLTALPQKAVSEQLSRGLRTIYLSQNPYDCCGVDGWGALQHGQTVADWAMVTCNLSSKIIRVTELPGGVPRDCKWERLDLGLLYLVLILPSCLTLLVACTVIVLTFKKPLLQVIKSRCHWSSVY
UniProt Q00918: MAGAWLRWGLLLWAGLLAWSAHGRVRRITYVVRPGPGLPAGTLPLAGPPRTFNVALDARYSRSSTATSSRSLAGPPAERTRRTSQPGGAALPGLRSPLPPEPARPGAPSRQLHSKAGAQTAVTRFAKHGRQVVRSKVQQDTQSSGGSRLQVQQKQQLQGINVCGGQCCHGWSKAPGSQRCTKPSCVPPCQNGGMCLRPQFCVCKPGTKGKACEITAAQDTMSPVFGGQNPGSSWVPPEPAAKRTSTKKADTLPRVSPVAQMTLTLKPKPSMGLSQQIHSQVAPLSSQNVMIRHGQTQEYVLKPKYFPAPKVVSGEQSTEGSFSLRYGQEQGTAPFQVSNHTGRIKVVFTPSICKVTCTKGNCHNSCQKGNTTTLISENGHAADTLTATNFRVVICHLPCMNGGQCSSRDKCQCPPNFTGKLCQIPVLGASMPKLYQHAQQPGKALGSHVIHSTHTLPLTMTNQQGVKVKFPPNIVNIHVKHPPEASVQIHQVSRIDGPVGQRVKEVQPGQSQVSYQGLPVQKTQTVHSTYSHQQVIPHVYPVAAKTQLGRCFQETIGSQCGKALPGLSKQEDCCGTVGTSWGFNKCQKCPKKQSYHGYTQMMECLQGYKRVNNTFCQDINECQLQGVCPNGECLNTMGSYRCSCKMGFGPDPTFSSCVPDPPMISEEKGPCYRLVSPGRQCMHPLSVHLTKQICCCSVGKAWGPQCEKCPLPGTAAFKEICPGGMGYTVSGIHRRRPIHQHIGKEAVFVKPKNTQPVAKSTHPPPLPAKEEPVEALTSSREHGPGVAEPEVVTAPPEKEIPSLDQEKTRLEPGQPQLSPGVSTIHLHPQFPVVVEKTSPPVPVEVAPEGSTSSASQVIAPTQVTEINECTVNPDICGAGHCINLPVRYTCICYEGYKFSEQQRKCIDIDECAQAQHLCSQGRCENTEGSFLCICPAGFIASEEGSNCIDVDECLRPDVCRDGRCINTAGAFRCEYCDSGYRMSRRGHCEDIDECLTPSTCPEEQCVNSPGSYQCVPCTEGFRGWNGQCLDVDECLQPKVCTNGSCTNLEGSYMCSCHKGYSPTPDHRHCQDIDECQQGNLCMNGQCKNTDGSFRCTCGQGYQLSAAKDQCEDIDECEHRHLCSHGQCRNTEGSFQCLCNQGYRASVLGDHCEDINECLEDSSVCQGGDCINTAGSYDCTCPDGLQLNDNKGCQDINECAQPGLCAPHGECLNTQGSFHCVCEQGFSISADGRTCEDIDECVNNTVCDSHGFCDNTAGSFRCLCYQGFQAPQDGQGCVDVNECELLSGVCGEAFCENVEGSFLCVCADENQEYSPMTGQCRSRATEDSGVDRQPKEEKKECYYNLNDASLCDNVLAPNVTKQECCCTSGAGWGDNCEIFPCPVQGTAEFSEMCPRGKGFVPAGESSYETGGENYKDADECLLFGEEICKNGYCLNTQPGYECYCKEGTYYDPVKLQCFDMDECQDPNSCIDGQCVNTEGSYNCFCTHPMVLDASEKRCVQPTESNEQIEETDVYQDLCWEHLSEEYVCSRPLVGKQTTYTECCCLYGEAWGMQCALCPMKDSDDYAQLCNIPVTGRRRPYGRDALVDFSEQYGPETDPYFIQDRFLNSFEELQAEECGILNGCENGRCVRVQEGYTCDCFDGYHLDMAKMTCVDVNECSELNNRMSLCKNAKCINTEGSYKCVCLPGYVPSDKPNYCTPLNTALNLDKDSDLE
UniProt Q5BK65: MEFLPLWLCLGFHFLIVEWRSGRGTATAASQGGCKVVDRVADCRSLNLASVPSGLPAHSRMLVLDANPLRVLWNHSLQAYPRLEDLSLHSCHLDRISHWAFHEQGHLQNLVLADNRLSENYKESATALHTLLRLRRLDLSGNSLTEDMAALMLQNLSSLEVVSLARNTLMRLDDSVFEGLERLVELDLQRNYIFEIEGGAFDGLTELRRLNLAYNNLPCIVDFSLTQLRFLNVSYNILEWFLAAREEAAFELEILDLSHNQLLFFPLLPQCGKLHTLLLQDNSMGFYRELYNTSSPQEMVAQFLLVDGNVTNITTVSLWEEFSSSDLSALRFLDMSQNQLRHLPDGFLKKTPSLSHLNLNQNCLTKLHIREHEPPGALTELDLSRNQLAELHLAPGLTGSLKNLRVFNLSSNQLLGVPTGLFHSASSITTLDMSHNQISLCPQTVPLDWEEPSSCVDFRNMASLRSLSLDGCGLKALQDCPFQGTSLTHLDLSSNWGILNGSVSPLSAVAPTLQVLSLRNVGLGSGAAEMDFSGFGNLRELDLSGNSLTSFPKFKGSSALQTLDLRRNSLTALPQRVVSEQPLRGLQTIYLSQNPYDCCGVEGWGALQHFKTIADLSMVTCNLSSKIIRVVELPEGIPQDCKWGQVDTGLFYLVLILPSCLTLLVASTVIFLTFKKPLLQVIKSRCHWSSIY
UniProt P01137: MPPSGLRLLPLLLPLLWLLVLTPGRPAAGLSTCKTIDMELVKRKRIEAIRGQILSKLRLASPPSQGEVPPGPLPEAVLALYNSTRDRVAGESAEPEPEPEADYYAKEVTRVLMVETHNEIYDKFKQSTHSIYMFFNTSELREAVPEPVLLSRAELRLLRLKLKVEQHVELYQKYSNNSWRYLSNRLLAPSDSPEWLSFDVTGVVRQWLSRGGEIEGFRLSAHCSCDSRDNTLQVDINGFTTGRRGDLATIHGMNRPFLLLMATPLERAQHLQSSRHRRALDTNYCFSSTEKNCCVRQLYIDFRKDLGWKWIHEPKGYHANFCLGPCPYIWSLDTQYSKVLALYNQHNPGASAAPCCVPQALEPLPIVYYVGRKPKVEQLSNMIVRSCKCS

These are yes or no findings as the source states them, for the method shown. Some results given as binding are weak or reduced against the parent protein; the word gives no strength.

B1: Ab4 (antibody, IgG4, V domains shown)
VH: EVQLVESGGGLVQPGGSLRLSCAASGFTFSSYSMNWVRQAPGKGLEWVSYISSSSSTIYYADSVKGRFTISRDNAKNSLYLQMNSLRAEDTAVYYCARGVLDYGDMLDPWGQGTLVTVSS
VL: DIQMTQSPSSLSASVGDRVTITCQASQDITNYLNWYQQKPGKAPKLLIYDASNLETGVPSRFSGSGSGTDFTFTISSLQPEDIATYYCQQADNHPPWTFGGGTKVEIK
B1: the binding result in assay [1] and in assay [2] was “binds” throughout.

B2: Ab6 (antibody, human IgG4 S228P, kappa, V domains shown)
VH: EVQLVESGGGLVQPGGSLRLSCTASGFTFSSFSMDWVRQAPGKGLEWVSYISPSADTIYYADSVKGRFTISRDNAKNTLYLQMNSLRAEDTAVYYCARGVLDYGDMLMPWGQGTLVTVSS
VL: DIQMTQSPSSLSASVGDRVTITCQASQDITNYLNWYQQKPGKAPKLLIYDASNLETGVPSRFSGSGSGTDFTFTISSLQPEDIATYYCQQADNHPPWTFGGGTKVEIKR
Regarding B2, the binding result in assay [3], in assay [4] and in assay [5] was “binds” in each case.

B3: Ab5 Fab (Fab, V domains shown)
VH: EVQLVESGGGLVQPGGSLRLSCAASGFTFSSFSMDWVRQAPGKGLEWVSYISPDASTIYYADSVKGRFTISRDNAKNSLYLQMNSLRAEDTAVYYCARGVLDYGDMLDPWGQGTLVTVSS
VL: DIQMTQSPSSLSASVGDRVTITCQASQDITNYLNWYQQKPGKAPKLLIYDASNLETGVPSRFSGSGSGTDFTFTISSLQPEDIATYYCQQADNHPPWTFGGGTKVEIK
In the case of B3, the binding result in assay [6] is “binds”.

Source of the values: US20220064275A1.
